The test system of one experiment is IDH3α. As to the kind of experiment: qRT-PCR mRNA expression of ERR downstream gene IDH3α. The conditions noted are these: 300 nM; ERR reporter cells; vs GAPDH, DMSO = 0%. In kind it is cell-based. On the procedure: (§1) Total RNA was isolated from treated ERR reporter cells using an RNeasy Mini Kit (Qiagen, Germantown, MD, USA), homogenized using a QIAshredder (Qiagen), and reverse transcribed with a High-Capacity RNA-to-cDNA™ Kit (ThermoFisher Scientific, Inc.) following the manufacturers’ instructions. Expression of ERRα, COX8α, IDH3α, PPARα, COX4I1, and cytochrome c genes was normalized against GAPDH. All primers were purchased from ThermoFisher Scientific, Inc. Real-time PCR assays were performed in 384-well plates on a QuantStudio 5 (Applied Biosystems, Foster City, CA, USA) with TaqMan™ Gene Expression Master Mix (ThermoFisher Scientific, Inc.). Induction values were calculated using the equation: Fold = 2^ΔΔCt, where ΔCt represents the differences in cycle threshold numbers between each of the target genes and GAPDH, and ΔΔCt represents the relative change in these differences between control and treatment groups. Experimental data are presented as a mean of triplicate determinations ± SD. Statistical comparisons were made by t-test, while the statistical significance was set at p values of <0.05 (light blue), <0.01 (medium blue), and <0.001 (dark blue).
(Quantitative PCR measures a nucleic acid by following its amplification.)

The next experiment relates to COX8α. As to the kind of experiment: qRT-PCR mRNA expression of ERR downstream gene COX8α. In kind it is cell-based. The conditions noted are these: 300 nM; ERR reporter cells; vs GAPDH, DMSO = 0%. On the procedure: as §1

As for `O=C(CCCCCCC(=O)Nc1ccccc1)NO` [Vorinostat (SAHA), Suberoylanilide hydroxamic acid], in the experiment with IDH3α, the “Percent inhibition of mRNA gene expression, IDH3α” value is 26.1 ± 32.9%. Further, in the experiment on COX8α, the “Percent inhibition of mRNA gene expression, COX8α” value amounted to 33.4 ± 22.5%.

Source of the values: article PMC6429183, “Identification of Compounds That Inhibit Estrogen-Related Receptor Alpha Signaling Using High-Throughput Screening Assays” (Molecules, 2019).
